The values that follow come from PMC10341498, “A Mannose Receptor from Litopenaeus vannamei Involved in Innate Immunity by Pathogen Recognition and Inflammation Regulation” (International Journal of Molecular Sciences, 2023).

For this series, the system named is T1, rLvMR (LvMR, mannose receptor).
T1 construct: mature peptide without signal peptide (primers span Cys23 to residue 315 of 315) in pET32a; N-terminal Trx/His fusion, about 53 kDa
Briefly: inhibition of agglutination of FITC-labelled V. parahaemolyticus, fluorescence microscopy. The following applies: 10 mmol L^-1 CaCl2, 4 h. It is filed as binding, Penaeus vannamei.

The mark [1] stands for this setting: two-fold steps 25-200 mmol L^-1 tested.

Turning to `OC[C@H]1OC(O)[C@H](O)[C@@H](O)[C@@H]1O` (stereo partly drawn) [D-glucose], the “minimum concentration for complete inhibition of agglutination” value under setting [1] worked out at 100 mmol/L.

Consider `CC(=O)N[C@@H]1C(O)O[C@H](CO)[C@@H](O)[C@@H]1O` (stereo partly drawn) [N-acetyl-D-mannosamine], for which the “minimum concentration for complete inhibition of agglutination” value under setting [1] is 200 mmol/L.

In the case of `OC[C@H]1OC(O)[C@H](O)[C@@H](O)[C@H]1O` (stereo partly drawn) [D-galactose], the “minimum concentration for complete inhibition of agglutination” value under setting [1] amounted to 50 mmol/L.

With `CC(=O)N[C@H]1C(O)O[C@H](CO)[C@@H](O)[C@@H]1O` (stereo partly drawn) [N-acetyl-D-glucosamine], the “minimum concentration for complete inhibition of agglutination” value under setting [1] turned out to be 100 mmol/L.

For the compound `CC(=O)N[C@H]1[C@H]([C@H](O)[C@H](O)CO)OC(O)(C(=O)O)C[C@@H]1O` (stereo partly shown) [N-acetylneuraminic acid], under setting [1], the “minimum concentration for complete inhibition of agglutination” value was found to be 50 mmol/L.

For `OC[C@H]1OC(O)[C@@H](O)[C@@H](O)[C@@H]1O` (stereo partly drawn) [D-mannose], under “two-fold steps 25-200 mmol L^-1 tested (25 is the lowest tested)”, the “minimum concentration for complete inhibition of agglutination” value amounted to 25 mmol/L.

Turning to `CC(=O)N[C@@H]1[C@@H](O)[C@@H](O)[C@@H](CO)O[C@H]1O` [N-acetyl-β-D-galactosamine], under setting [1], the “minimum concentration for complete inhibition of agglutination” value is 200 mmol/L.
